Data source: PubChem BioAssay AID1259308 (NCATS, 2017)

Purpose: 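Knock-downs that increase output of a recombinant reporter protein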 (primary screen)
Cells: human HEK293 embryonic kidney cells stably expressing firefly luciferase (HEK-CMV-Luc2-Hygro)
Knock-down reagent: single siRNA against human genes, 0.8 pmol siRNA per well
Time to read-out: 72 h
Measured: 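Luciferase light (ONE-Glo) measured on one replicate plate set and viability (CellTiter-Glo) on the other, scaled to a negative control siRNA, with robust z-scores and luciferase per cell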
Scale: total luciferase, z-score and total luciferase, % of control: higher = more reporter protein produced
Hit rule: 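An siRNA counts as active if its total luciferase robust z-score exceeds 3; genes with two or more such siRNAs out of three were retested with fresh siRNAs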
Calls: active = raised luciferase; inactive = no rise
The deposit covers about 59,000 reagents; below is a part drawn at random. About 1,510 of them (2.6%) count as active. 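Calls use total luciferase alone and ignore viability, so some active siRNAs may act by altering cell number.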 The numbers tell different reagents against one gene apart. Further read-outs or replicates are left out here. No sequences are given here.

| Gene | reagent | total luciferase, z-score | total luciferase, % of control | activity call |
| --- | --- | --- | --- | --- |
| PRR15L (proline rich 15 like) | 1 | 1.08 | 103 | inactive |
| PRR15L (proline rich 15 like) | 2 | -0.137 | 79.2 | inactive |
| PRR15L (proline rich 15 like) | 3 | -0.401 | 73.9 | inactive |
| AKR1A1 (aldo-keto reductase family 1 member A1) | 1 | 2.52 | 132 | inactive |
| AKR1A1 (aldo-keto reductase family 1 member A1) | 2 | 3.68 | 155 | active |
| AKR1A1 (aldo-keto reductase family 1 member A1) | 3 | 0.382 | 89.5 | inactive |
| TXK (TXK tyrosine kinase) | 1 | -0.364 | 74.6 | inactive |
| TXK (TXK tyrosine kinase) | 2 | -1.38 | 54.4 | inactive |
| TXK (TXK tyrosine kinase) | 3 | 0.125 | 84.4 | inactive |
| DRC11 (dynein regulatory complex subunit 11) | 1 | 0.271 | 87.3 | inactive |
| DRC11 (dynein regulatory complex subunit 11) | 2 | 0.673 | 95.3 | inactive |
| DRC11 (dynein regulatory complex subunit 11) | 3 | -0.938 | 63.2 | inactive |
| VPS41 (VPS41 subunit of HOPS complex) | 1 | -0.00798 | 81.7 | inactive |
| VPS41 (VPS41 subunit of HOPS complex) | 2 | 0.0844 | 83.6 | inactive |
| VPS41 (VPS41 subunit of HOPS complex) | 3 | -0.317 | 75.6 | inactive |
| DCT (dopachrome tautomerase) | 1 | -0.265 | 76.6 | inactive |
| DCT (dopachrome tautomerase) | 2 | 0.623 | 94.3 | inactive |
| DCT (dopachrome tautomerase) | 3 | -0.0877 | 80.1 | inactive |
| TAF10 (TATA-box binding protein associated factor 10) | 1 | 0.626 | 94.3 | inactive |
| TAF10 (TATA-box binding protein associated factor 10) | 2 | 0.934 | 100 | inactive |
| TAF10 (TATA-box binding protein associated factor 10) | 3 | 0.198 | 85.8 | inactive |
| ZMYM3 (zinc finger MYM-type containing 3) | 1 | 2.72 | 136 | inactive |
| ZMYM3 (zinc finger MYM-type containing 3) | 2 | 1.74 | 117 | inactive |
| ZMYM3 (zinc finger MYM-type containing 3) | 3 | 0.452 | 90.9 | inactive |
| YY1 (YY1 transcription factor) | 1 | 2.58 | 133 | inactive |
| YY1 (YY1 transcription factor) | 2 | 1.02 | 102 | inactive |
| YY1 (YY1 transcription factor) | 3 | 0.116 | 84.2 | inactive |
| RPL13P12 (ribosomal protein L13 pseudogene 12) | 1 | -0.172 | 78.5 | inactive |
| RPL13P12 (ribosomal protein L13 pseudogene 12) | 2 | 0.813 | 98 | inactive |
| RPL13P12 (ribosomal protein L13 pseudogene 12) | 3 | -1.36 | 54.8 | inactive |
| CD37 (CD37 molecule) | 1 | 0.261 | 87.1 | inactive |
| CD37 (CD37 molecule) | 2 | 0.447 | 90.8 | inactive |
| CD37 (CD37 molecule) | 3 | 8.01 | 241 | active |
| MANF (mesencephalic astrocyte derived neurotrophic factor) | 1 | -1.01 | 61.8 | inactive |
| MANF (mesencephalic astrocyte derived neurotrophic factor) | 2 | -1.66 | 48.8 | inactive |
| MANF (mesencephalic astrocyte derived neurotrophic factor) | 3 | 1.13 | 104 | inactive |
| ZNF25 (zinc finger protein 25) | 1 | -0.401 | 73.9 | inactive |
| ZNF25 (zinc finger protein 25) | 2 | -0.891 | 64.2 | inactive |
| ZNF25 (zinc finger protein 25) | 3 | -1.43 | 53.5 | inactive |
